# Measurements reported in PubChem BioAssay AID2685 (National Center for Advancing Translational Sciences (NCATS), 2010).
# In all, about 320,000 compounds went through this assay and about 2,100 (0.66%) were called active. The shares of active, inactive and inconclusive entries below differ from those in the screen. Calls come from the whole dose curve; as a rule, active = well fitted inhibition curve with a large enough effect in the signal ratio, with a control signal flat (not every such curve was filed as active); inconclusive = small, poorly fitted or top-dose-only effect, or effect the other way, or a change in a side signal; inactive = flat fitted curve, though single readings scatter; the % refers to the signal ratio. Potencies of inconclusive entries are doubtful fits and often do not repeat.
# Test: qHTS Assay for Lipid Storage Modulators in Drosophila S3 Cells
# Settings: BODIPY lipid droplet fluorescence, 18-24 h, cells fed with added oleic acid; lipid storage change, negative = inhibition: at 46.1 µM (top of the series) unless noted
# In short: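 Laser-scanning cytometry quantifies lipid droplet accumulation (500–530 nm total intensity; droplet/cell object ratio) in oleic acid-fed (400 uM added) Drosophila S3 cells treated with a concentration series. 20 uM Triacsin C defined 100% inhibition.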
# % is set by controls: 0 for no effect and ±100 for the full control effect; potency is the fitted concentration of half-maximal effect.
Structure (SMILES),"lipid storage change, negative = inhibition",Potency
CN1CCN(c2nc3c(c(=O)[nH]c(=O)n3C)n2CC(N)=O)CC1,inconclusive: -6.87%,
CCCn1c(N)c(C(=O)COC(=O)c2cccc(S(=O)(=O)N3CCOCC3)c2)c(=O)[nH]c1=O,inconclusive: -4.75%,
O=C(CNC(=O)c1ccco1)N=Nc1c(O)[nH]c2ccc([N+](=O)[O-])cc12,,active: 1.03 µM
O=C(CCSCc1ccc(Cl)cc1)NCc1cccs1,,"inconclusive: 29.1 µM [cytotoxic, single point]"
CN(/N=C/c1cc(Cl)ccc1O)C1=NS(=O)(=O)c2ccccc21,,active: 3.66 µM
COc1nc(-c2ccccc2)cc(-c2ccc(OC)c(OC)c2)n1,inconclusive: 81.5%,
Cc1ccccc1OCC(=O)Nc1ccccc1-c1ccccc1,inconclusive: -12.4%,
COc1cccc(CC(=O)N2CCC(n3nccc3NC(=O)C3CCOC3)CC2)c1 (stereo not drawn),inconclusive: 8.83%,
Cc1cc2[nH]c(=O)c(=O)[nH]c2cc1S(=O)(=O)N1CCN(c2cccc(Cl)c2)CC1,,"inconclusive: 25.9 µM [falling, single point]"
O=C(Nc1ccncc1)c1ccc(Cl)c(S(=O)(=O)N2CCc3ccccc32)c1,inconclusive: -66.9% [at 0.0737 µM],
CNC(=S)NCc1ccc(OC)cc1,inconclusive: -11%,
COc1ccc2c(c1)c1nc3ccccc3nc1n2Cc1ccc(OC(C)C)c(OC)c1,inconclusive: -84.6%,
COCCN(C(=O)CNC(=O)c1ccco1)C(C(=O)NC1CCCC1)c1ccc(OC)c(OC)c1 (stereo not drawn),inconclusive: -42.9%,
O=S(=O)(NC1CCCCC1)c1ccc(S(=O)(=O)N2CCN3CCCC3C2)cc1 (stereo not drawn),,"inconclusive: 16.4 µM [falling, single point]"
CC(C)(C)Nc1nc(SCC(=O)Nc2ccccc2Cl)nc(N2CCOCC2)n1,inconclusive: -28%,
CC(=O)Nc1ncc(Cc2cccc(Cl)c2Cl)s1,inactive,
Clc1ccc(OCc2nc(-c3ccncc3)no2)c(Br)c1,,"inconclusive: 4.61 µM [activator, partial curve]"
O=C(Nc1ncccc1O)c1ccc(Cl)c(S(=O)(=O)N2CCCCC2)c1,inconclusive: 21.8%,
O=C(CCSc1nc(-c2ccco2)cc(C(F)(F)F)n1)NCc1cccs1,inconclusive: -13.3%,
O=C(CCN1C(=O)COc2ccccc21)NCCCN1CCN(c2ccccc2F)CC1,,"inconclusive: 0.13 µM [falling, full curve, poor fit]"
CC(C)C(=O)Nc1ccc(Br)cc1Cl,inconclusive: -36.6% [at 0.00295 µM],
CC(C)CNC(=O)/C=C/c1cccs1,inconclusive: 7.45%,
Cc1csc2ncc(C(=O)N3CCCc4ccccc43)c(=O)n12,inconclusive: 1.51%,
O=C(OCC(=O)N1CCN(c2ccccc2)CC1)c1ccco1,,active: 23.1 µM
C=CCn1c(SCC(=O)NCc2ccco2)nc2ccccc2c1=O,inconclusive: 13.2%,
O=C(C1=NOC(CNc2ncc(C(F)(F)F)cc2Cl)C1)N1CCOCC1 (stereo not drawn),inconclusive: -13.3%,

Structure (SMILES),"lipid storage change, negative = inhibition",Potency
Cc1nc(NC(=O)COC(=O)c2cc3c(s2)CCC(C)C3)c(Cl)cc1Cl (stereo not drawn),inconclusive: 20.7%,
CC(Sc1nnnn1C)C(=O)NC1CCCc2ccccc21 (stereo not drawn),inconclusive: -26% [at 9.22 µM],
Cc1ccc2c(-c3csc(N)n3)c[nH]c2c1,inconclusive: 24.8%,
Cc1c(CNC(=O)c2cnn3c2NC(c2ccc(Br)cc2)CC3C(F)(F)F)cnn1C (stereo not drawn),,"inconclusive: 0.82 µM [activator, full curve, poor fit]"
Cc1nn(-c2ccccc2)c(Cl)c1/C=N/Nc1nncc(=O)[nH]1,inconclusive: 30.8%,
CN1C(=O)C2(C(C#N)=C(N)N(c3cc(Cl)cc(Cl)c3)C3=C2C(=O)CC(C)(C)C3)c2ccccc21 (stereo not drawn),inconclusive: 13.5%,
CCOc1ccc(C2=C/C(=C/c3cccnc3)C(=O)O2)cc1,inconclusive: 54.8%,
O=[N+]([O-])c1ccc(O)c(/C=N/Nc2ccccc2Cl)c1,inconclusive: 4.62%,
O=C(NCCCN1CCCCC1)C1CCN(S(=O)(=O)N2CCC3(CC2)OCCO3)CC1,inactive,
O=C1c2cccc3c([N+](=O)[O-])ccc(c23)C(=O)N1CCc1ccccn1,inconclusive: 15.2%,
CCOc1ccc(S(=O)(=O)N2CCC(C(=O)N3CCOCC3)CC2)cc1Cl,inconclusive: 27.8%,
COc1ccc(NC(=O)CCNS(=O)(=O)c2ccc3c(c2)c(=O)n(C)c(=O)n3C)c(OC)c1,inconclusive: -9.54%,
O=C(Nc1cccc(S(=O)(=O)N2CCOCC2)c1)c1cccc(S(=O)(=O)N2CCCC2)c1,inconclusive,
CC(NCc1cc(Br)ccc1OCC(=O)NCc1ccccc1)c1ccccc1 (stereo not drawn),,"inconclusive: 29.1 µM [falling, single point]"
CCc1ccc(CN(C)CC(=O)Nc2ccc(S(=O)(=O)N3CCOCC3)cc2)cc1,,"inconclusive: 20.6 µM [falling, partial curve, poor fit]"
O=C(CCN1C(=O)c2ccccc2C1=O)N1CCN(C2c3ccccc3-c3ccccc32)CC1,inconclusive: 20.3%,
Cc1cccn2c(=O)c3cc(C(=O)NCCc4ccccc4)c(=N)n(Cc4ccco4)c3nc12,inconclusive: -18.5%,
COc1cccc(CNS(=O)(=O)c2ccc3c(c2)CC(C)N3C(=O)C2CC2)c1 (stereo not drawn),,active: 11.6 µM
CCn1c(COc2ccccc2C)nnc1SCC(=O)OC,inconclusive: -22.9%,
COc1ccccc1Nc1nnc(C)c(=O)[nH]1,,"inconclusive: 29.1 µM [activator, single point]"
CCC(=O)N1CCc2cc(Br)cc(S(=O)(=O)C3(C(=O)OC)CC3)c21,,"inconclusive: 5.8 µM [activator, single point]"
CC(C)(C)n1ncc2c(=O)n(CC(=O)NCc3ccccc3Cl)cnc21,inconclusive: 3.79%,
Cc1ccccc1OCC(=O)Nc1ccccc1C(=O)N1CCCCC1,inconclusive: -18.3%,
CCCCOCCCNC(=O)N[C@H](C(=O)OC)C(C)CC (stereo partly drawn),inconclusive: 55.5%,
Cc1ccc(CNC(=O)c2sc3ccc(S(=O)(=O)N4CCCCC4)cc3c2N)cc1,,"inconclusive: 29.1 µM [falling, single point]"
CCCCn1c(-c2ccccc2)nc2c(=O)n(C)c(=O)[nH]c21,,"inconclusive: 29.1 µM [falling, partial curve, poor fit]"

Structure (SMILES),"lipid storage change, negative = inhibition",Potency
COc1ccccc1C(=O)Nc1cccc(Oc2c(F)c(F)c(F)c(F)c2F)c1,,"inconclusive: 2.06 µM [activator, partial curve]"
Cc1ccc(S(C)(=O)=O)cc1C(=O)N1CC(C(N)=O)Oc2ccccc21 (stereo not drawn),inconclusive: 53.9%,
CS(=O)(=O)N(CC(=O)Nc1ccc(F)cc1F)c1cccc([N+](=O)[O-])c1,inconclusive: 1.41%,
O=C(O)c1cccc(S(=O)(=O)Nc2ccc3oc(=O)sc3c2)c1,inactive,
Cc1ccc(S(=O)(=O)c2nnn3c2nc(N2CCOCC2)c2ccccc23)cc1,,"inconclusive: 6.51 µM [falling, single point]"
COC(=O)c1cc(Br)c(=O)n(Cc2cccnc2)c1,,"inconclusive: 0.731 µM [rising, partial curve]"
COC(=O)c1oc2nc(C)cc(C)c2c1N,,"inconclusive: 2.06 µM [activator, partial curve]"
COc1ccc(NS(=O)(=O)c2ccc(N3CCCC3)c(NC(=S)Nc3cccc(S(=O)(=O)N(C)C)c3)c2)cc1,inconclusive: 27.6%,
c1ccc(CN2CCN(c3nc(-c4ccccc4)nc(-n4ccnc4)n3)CC2)cc1,inconclusive: -35.3%,
Cc1nn(-c2ccccc2)c(CC(C)(C)C(=O)O)c1C(=O)O,inconclusive: -20.6%,
O=C(CCN1CCCCCC1)Nc1ccc(F)cc1,inactive,
O=C(Nc1ccccn1)C1CCN(C(=O)c2ccc(F)cc2)CC1,inconclusive: 23.3%,
CSc1nnc2n(-c3ccc(C)cc3)c(=O)c3c4c(sc3n12)COC(C(C)C)C4 (stereo not drawn),inconclusive: 2.02% [at 9.22 µM],
CC(C)c1ccc(NC(=O)C(c2ccccc2)N2CCN(C(=O)c3ccco3)CC2)cc1 (stereo not drawn),,active: 20.6 µM
O=C(Nc1ncn[nH]1)c1cc(S(=O)(=O)Nc2cccc(C(F)(F)F)c2)ccc1Cl,inconclusive: -14.6%,
COc1ccc(C2C(C(C)=O)=C(O)C(=O)N2C)c(OC)c1 (stereo not drawn),,"inconclusive: 6.51 µM [falling, single point]"
COc1cccc(NS(=O)(=O)c2ccc3c(c2)NC(=O)CC(=O)N3)c1,,"inconclusive: 20.6 µM [activator, partial curve]"
COc1cc2c(cc1OC)CN(C(C)C(=O)Nc1cccc(S(=O)(=O)N3CCOCC3)c1)CC2 (stereo not drawn),inconclusive,
COc1ccc(CNC(=O)C2(c3ccc(Cl)cc3)CC2)cc1,inactive,
CCCC(=O)Nc1cccc(Oc2ccc3c(c2)C(=O)NC3=O)c1,,active: 1.46 µM
O=C(CNC(=O)c1ccccc1)OCC(=O)c1ccccc1Cl,inconclusive: -67%,
COc1ccc(OC)c(NC(=O)CCc2c[nH]c3ccccc23)c1,inconclusive: -16.2%,
Cn1c(=O)c2c(ncn2CC(COCc2ccccc2Cl)OCc2ccccc2Cl)n(C)c1=O (stereo not drawn),inconclusive: 106%,
COc1cc(S(=O)(=O)N(Cc2ccc(C)cc2)Cc2ccco2)ccc1-n1cnnn1,inconclusive: 2.53%,
O=C(Cc1c[nH]c2ccccc12)NCc1ccc2c(c1)OCO2,inconclusive: 17.9%,
CC(C)(C)c1csc(NC(=O)c2ccccc2O)n1,inconclusive: -83.8%,

# Reformatted: entries from further up
Structure (SMILES) | lipid storage change, negative = inhibition | Potency
COc1cc2c(cc1OC)CN(C(C)C(=O)Nc1cccc(S(=O)(=O)N3CCOCC3)c1)CC2 (stereo not drawn) | inconclusive | 
COc1ccc(CNC(=O)C2(c3ccc(Cl)cc3)CC2)cc1 | inactive | 
CCCC(=O)Nc1cccc(Oc2ccc3c(c2)C(=O)NC3=O)c1 |  | active: 1.46 µM
O=C(CNC(=O)c1ccccc1)OCC(=O)c1ccccc1Cl | inconclusive: -67% | 
COc1ccc(OC)c(NC(=O)CCc2c[nH]c3ccccc23)c1 | inconclusive: -16.2% | 
